Consider 2 molecules from publication PMC7136618, “Defective nucleotide-dependent assembly and membrane fusion in Mfn2 CMT2A variants improved by Bax” (Life Science Alliance, 2020).

No constants are given. Whether binding was seen depends on the method and setting. In cells and extracts the contact can be indirect. Some results given as binding are weak or reduced against the parent protein; the word gives no strength. Where a sequence is shown, tags or fusion partners need not be part of it.

In assay [1] the target is T1, Mfn2^C390F with a C-terminal 3×FLAG tag (UniProt Q80U63).
T1 sequence: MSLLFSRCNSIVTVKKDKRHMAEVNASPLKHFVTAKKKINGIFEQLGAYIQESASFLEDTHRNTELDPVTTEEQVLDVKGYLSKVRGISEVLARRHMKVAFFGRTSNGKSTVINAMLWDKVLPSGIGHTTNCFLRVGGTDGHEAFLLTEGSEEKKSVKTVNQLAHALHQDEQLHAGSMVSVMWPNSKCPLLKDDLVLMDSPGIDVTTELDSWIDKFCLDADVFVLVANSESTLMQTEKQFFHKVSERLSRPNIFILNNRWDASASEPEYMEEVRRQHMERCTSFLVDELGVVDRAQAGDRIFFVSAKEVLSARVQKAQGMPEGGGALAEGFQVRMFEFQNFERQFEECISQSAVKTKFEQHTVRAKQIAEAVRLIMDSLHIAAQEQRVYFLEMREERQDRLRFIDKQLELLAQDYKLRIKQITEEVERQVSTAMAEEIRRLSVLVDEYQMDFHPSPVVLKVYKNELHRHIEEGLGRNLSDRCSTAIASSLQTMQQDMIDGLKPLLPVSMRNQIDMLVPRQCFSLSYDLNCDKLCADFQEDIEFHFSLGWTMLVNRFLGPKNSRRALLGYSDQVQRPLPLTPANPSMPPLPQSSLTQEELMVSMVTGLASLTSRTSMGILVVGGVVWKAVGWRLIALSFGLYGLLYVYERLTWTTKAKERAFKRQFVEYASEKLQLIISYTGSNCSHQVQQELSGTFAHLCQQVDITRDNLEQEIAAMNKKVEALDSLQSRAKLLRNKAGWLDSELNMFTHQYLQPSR
The experiment in a line: co-IP; two populations of isolated mitochondria (Mfn1 + Mfn2-FLAG; Mfn1-eGFP + Mfn2), 50 μg each, mixed, incubated at 37°C for 30 min with BeF3 with or without 2 mM GDP in fusion buffer; lysed in 1.5% DDM; anti-FLAG (DYKDDDDK) magnetic beads; blots with α-Mfn1 and α-Mfn2; endogenous Mfn1 is in cis, Mfn1-eGFP and endogenous Mfn2 are in trans to Mfn2-FLAG.

For assay [2], the target named is T2, Mfn2^Q386P with a C-terminal 3×FLAG tag (UniProt Q80U63).
T2 sequence: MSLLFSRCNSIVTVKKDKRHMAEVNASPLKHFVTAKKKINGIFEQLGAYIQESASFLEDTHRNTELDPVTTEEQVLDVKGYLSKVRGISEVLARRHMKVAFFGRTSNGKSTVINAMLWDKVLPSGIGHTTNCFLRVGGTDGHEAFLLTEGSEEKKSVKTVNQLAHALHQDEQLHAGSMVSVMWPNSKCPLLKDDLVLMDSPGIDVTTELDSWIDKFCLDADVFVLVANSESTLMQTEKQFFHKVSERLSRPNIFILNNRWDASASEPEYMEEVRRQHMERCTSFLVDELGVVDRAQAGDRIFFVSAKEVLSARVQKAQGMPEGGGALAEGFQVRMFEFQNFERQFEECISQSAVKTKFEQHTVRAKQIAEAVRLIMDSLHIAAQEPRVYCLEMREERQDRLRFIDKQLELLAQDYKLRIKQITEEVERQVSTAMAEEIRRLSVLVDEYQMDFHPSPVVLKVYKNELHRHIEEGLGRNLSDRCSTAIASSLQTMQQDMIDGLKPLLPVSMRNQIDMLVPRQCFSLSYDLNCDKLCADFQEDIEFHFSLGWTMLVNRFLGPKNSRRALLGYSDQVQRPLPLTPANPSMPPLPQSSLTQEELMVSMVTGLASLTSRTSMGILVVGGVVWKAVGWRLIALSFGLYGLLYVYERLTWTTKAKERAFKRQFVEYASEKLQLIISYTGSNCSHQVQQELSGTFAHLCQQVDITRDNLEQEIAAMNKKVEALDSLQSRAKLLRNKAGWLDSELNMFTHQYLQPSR
The description is as above.

B1: endogenous Mfn1 (protein, UniProt Q811U4 1-741)
chain: MAETVSPLKHFVLAKKAITAIFGQLLEFVTEGSHFVEATYRNPELDRIASEDDLVEIQGYRNKLAVIGEVLSRRHMKVAFFGRTSSGKSSVINAMLWDKVLPSGIGHTTNCFLSVEGTDGDKAYLMTEGSDEKKSVKTVNQLAHALHMDKDLKAGCLVHVFWPKAKCALLRDDLVLVDSPGTDVTTELDIWIDKFCLDADVFVLVANSESTLMNTEKHFFHKVNERLSKPNIFILNNRWDASASEPEYMEDVRRQHMERCLHFLVEELKVVSPSEARNRIFFVSAKEVLNSRKHKAQGMPEGGGALAEGFQARLQEFQNFEQTFEECISQSAVKTKFEQHTIRAKQILDTVKNILDSVNVAAAEKRVYSMEEREDQIDRLDFIRNQMNLLTLDVKKKIKEVTEEVANKVSCAMTDEICRLSVLVDEFCSEFHPTPSVLKVYKSELNKHIEDGMGRNLADRCTNEVNASILQSQQEIIENLKPLLPAGIQNKLHTLIPCKKFDLSYDLNCHKLCSDFQEDIVFRFSLGWSSLVHRFLGSTNAQRVLLGLSEPIFQVPRSLASTPTAPSNPAAPDNAAQEELMITLITGLASLTSRTSMGIIVVGGVIWKTVGWKLISVTLSMYGALYLYERLTWTTRAKERAFKQQFVNYATEKLQMIVSFTSANCSHQVQQEMATTFARLCQQVDVTQKHLEEEIARLSKEIDQLEKIQNNSKLLRNKAVQLESELENFSKQFLHPSSGES
With B1, the binding result in assay [1] and in assay [2] was “binds” throughout.

B2: Mfn1^WT-eGFP (protein, UniProt Q811U4 1-741)
chain: MAETVSPLKHFVLAKKAITAIFGQLLEFVTEGSHFVEATYRNPELDRIASEDDLVEIQGYRNKLAVIGEVLSRRHMKVAFFGRTSSGKSSVINAMLWDKVLPSGIGHTTNCFLSVEGTDGDKAYLMTEGSDEKKSVKTVNQLAHALHMDKDLKAGCLVHVFWPKAKCALLRDDLVLVDSPGTDVTTELDIWIDKFCLDADVFVLVANSESTLMNTEKHFFHKVNERLSKPNIFILNNRWDASASEPEYMEDVRRQHMERCLHFLVEELKVVSPSEARNRIFFVSAKEVLNSRKHKAQGMPEGGGALAEGFQARLQEFQNFEQTFEECISQSAVKTKFEQHTIRAKQILDTVKNILDSVNVAAAEKRVYSMEEREDQIDRLDFIRNQMNLLTLDVKKKIKEVTEEVANKVSCAMTDEICRLSVLVDEFCSEFHPTPSVLKVYKSELNKHIEDGMGRNLADRCTNEVNASILQSQQEIIENLKPLLPAGIQNKLHTLIPCKKFDLSYDLNCHKLCSDFQEDIVFRFSLGWSSLVHRFLGSTNAQRVLLGLSEPIFQVPRSLASTPTAPSNPAAPDNAAQEELMITLITGLASLTSRTSMGIIVVGGVIWKTVGWKLISVTLSMYGALYLYERLTWTTRAKERAFKQQFVNYATEKLQMIVSFTSANCSHQVQQEMATTFARLCQQVDVTQKHLEEEIARLSKEIDQLEKIQNNSKLLRNKAVQLESELENFSKQFLHPSSGES
Regarding B2, the binding entry in assay [1] and in assay [2] was “binds” each time.
